Here are results for three sequences from article PMC7826256.

Sequences of proteins named here, by UniProt entry; tags and fusion partners are left off. A change or cut given only in a name is not applied to a line headed by its entry. Residues count along the entry.
UniProt P51991: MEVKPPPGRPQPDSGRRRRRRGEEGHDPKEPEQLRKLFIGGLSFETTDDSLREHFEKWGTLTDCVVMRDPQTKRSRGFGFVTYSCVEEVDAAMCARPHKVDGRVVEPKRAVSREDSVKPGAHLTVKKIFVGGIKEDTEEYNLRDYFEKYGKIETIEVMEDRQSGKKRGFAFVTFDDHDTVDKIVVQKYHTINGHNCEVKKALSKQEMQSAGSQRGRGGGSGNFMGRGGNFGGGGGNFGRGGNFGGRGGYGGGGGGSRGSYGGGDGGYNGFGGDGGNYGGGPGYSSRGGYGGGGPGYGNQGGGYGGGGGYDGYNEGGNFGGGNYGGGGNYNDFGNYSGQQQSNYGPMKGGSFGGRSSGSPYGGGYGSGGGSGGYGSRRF
UniProt P12956, 2-609: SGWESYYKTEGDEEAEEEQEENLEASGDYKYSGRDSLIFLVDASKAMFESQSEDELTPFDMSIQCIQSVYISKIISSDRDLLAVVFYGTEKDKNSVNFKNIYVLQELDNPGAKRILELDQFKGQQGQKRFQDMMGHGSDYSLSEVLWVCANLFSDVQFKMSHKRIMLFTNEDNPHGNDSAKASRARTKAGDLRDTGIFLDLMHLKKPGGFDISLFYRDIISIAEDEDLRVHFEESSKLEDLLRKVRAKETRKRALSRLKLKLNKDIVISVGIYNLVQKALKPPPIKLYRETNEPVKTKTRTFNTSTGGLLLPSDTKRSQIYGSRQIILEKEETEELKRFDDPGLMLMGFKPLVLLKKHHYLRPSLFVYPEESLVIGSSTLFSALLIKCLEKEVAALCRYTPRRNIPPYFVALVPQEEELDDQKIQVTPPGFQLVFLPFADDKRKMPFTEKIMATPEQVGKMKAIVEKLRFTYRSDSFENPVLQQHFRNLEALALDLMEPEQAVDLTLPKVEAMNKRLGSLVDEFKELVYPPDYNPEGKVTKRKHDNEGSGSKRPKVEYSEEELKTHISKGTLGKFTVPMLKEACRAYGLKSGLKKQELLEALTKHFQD
UniProt O00571, 2-662: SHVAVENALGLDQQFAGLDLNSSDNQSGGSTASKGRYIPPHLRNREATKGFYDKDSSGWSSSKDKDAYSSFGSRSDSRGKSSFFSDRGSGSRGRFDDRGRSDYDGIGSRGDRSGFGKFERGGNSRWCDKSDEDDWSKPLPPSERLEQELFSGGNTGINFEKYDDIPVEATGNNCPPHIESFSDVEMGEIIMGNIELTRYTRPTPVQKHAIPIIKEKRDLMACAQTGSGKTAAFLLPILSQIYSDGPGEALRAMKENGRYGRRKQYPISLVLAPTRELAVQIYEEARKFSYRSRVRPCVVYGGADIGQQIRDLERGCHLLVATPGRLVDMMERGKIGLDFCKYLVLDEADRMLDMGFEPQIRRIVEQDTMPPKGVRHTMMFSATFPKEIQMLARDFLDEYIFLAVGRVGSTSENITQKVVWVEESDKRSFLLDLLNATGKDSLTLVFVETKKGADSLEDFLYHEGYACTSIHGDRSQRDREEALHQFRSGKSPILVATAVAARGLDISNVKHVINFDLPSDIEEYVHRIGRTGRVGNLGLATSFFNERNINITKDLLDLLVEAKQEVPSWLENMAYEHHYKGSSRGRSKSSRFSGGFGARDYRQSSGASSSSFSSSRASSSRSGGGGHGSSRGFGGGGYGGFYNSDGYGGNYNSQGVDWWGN
UniProt P13010, 2-732: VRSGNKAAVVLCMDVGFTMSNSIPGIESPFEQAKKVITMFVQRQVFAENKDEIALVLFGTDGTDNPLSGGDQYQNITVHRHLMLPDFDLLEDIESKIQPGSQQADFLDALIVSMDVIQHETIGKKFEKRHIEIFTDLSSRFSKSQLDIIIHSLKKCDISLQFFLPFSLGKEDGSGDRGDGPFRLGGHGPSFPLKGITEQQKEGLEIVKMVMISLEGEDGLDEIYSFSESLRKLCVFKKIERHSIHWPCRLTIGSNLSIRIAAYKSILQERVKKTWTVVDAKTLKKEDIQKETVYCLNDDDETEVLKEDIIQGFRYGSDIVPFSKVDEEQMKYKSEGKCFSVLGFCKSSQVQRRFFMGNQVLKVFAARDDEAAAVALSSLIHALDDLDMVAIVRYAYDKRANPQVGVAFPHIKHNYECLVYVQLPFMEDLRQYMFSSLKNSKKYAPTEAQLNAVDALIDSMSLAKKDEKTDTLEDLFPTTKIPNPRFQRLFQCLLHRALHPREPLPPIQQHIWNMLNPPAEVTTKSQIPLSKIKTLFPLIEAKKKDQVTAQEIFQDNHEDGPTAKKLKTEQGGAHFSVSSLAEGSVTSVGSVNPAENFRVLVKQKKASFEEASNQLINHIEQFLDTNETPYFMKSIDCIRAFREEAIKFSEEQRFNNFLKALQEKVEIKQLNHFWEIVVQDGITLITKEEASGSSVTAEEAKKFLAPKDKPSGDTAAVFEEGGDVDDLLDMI

Common to all, as to test: pull-down + LC-MS
Common to all, as to details: Oligos folded in 20 mM phosphate pH 7.4, 150 pmol on streptavidin beads, 25 ug 93T449 nuclear extract, 4 C, 2-3 h, protein in an extract

Data set [1] addresses hnRNP A3 (UniProt P51991).
For data set [2], the target named is T1, hnRNP H3 (UniProt P31942).
T1 sequence (looked up, limits assumed): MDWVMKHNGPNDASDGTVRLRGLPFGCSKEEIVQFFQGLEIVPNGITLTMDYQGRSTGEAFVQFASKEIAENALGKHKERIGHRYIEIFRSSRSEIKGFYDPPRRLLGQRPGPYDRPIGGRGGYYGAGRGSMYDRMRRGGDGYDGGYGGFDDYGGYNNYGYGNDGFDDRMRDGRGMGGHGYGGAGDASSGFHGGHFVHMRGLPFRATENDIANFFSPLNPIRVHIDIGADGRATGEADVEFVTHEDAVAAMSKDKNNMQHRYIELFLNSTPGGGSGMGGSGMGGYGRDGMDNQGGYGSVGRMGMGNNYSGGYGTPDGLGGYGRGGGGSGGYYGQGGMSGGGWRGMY

Data set [3] has as its target XRCC6 (Ku70) (UniProt P12956).
Data set [4] has as its target T2, hnRNP Q (UniProt O60506).
T2 sequence (looked up, limits assumed): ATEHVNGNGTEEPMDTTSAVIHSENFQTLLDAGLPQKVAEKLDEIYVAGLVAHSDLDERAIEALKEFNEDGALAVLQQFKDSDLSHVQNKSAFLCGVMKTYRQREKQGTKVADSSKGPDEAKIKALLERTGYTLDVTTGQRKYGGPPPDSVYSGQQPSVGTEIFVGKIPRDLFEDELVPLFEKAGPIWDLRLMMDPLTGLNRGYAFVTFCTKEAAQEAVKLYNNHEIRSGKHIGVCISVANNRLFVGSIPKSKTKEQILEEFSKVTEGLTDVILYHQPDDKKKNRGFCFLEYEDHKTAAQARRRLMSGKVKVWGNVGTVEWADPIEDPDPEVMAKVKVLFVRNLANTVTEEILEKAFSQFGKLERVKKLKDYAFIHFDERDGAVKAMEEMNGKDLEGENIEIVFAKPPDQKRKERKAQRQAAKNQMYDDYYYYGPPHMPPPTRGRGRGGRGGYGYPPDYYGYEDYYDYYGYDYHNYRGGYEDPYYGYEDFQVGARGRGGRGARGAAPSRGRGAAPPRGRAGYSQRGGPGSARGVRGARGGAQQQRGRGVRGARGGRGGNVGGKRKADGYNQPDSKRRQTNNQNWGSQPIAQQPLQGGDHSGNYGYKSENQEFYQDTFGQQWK

The target of data set [5] is DDX3X (UniProt O00571).
Data set [6] concerns the target XRCC5 (Ku80) (UniProt P13010).
Data set [7] has as its target T3, hnRNP F (UniProt P52597).
T3 sequence (looked up, limits assumed): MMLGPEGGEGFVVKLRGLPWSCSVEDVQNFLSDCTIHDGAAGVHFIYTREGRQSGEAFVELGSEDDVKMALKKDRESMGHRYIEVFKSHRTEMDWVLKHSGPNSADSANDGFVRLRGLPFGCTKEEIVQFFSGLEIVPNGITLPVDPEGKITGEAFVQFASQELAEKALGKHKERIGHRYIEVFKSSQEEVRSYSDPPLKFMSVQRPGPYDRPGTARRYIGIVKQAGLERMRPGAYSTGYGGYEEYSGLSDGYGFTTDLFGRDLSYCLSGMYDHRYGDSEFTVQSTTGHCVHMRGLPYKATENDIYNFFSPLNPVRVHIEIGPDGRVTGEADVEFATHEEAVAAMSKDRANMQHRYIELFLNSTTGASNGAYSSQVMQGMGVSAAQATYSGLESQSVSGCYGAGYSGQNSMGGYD

Data set [8] has as its target T4, EWS (UniProt Q01844).
T4 sequence (looked up, limits assumed): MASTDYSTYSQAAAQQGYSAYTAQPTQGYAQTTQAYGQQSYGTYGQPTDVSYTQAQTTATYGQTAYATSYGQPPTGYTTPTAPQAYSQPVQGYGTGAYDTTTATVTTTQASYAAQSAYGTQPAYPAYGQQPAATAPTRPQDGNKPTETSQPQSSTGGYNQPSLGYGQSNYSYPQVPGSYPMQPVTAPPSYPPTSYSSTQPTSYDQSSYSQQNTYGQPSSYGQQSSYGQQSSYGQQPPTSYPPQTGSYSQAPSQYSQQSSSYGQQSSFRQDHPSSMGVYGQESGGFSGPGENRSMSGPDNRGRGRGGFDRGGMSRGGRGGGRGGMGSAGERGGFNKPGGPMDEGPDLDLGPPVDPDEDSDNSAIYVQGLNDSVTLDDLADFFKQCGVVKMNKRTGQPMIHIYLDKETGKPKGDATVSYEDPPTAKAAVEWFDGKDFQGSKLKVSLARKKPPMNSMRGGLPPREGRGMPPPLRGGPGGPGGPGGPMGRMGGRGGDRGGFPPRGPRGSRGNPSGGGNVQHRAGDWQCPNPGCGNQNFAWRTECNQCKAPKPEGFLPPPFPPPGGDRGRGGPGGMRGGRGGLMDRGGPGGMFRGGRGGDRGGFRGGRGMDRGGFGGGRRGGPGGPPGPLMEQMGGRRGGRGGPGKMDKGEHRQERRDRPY

In data set [9] the test system is ACBL.
The mark [10] stands for this setting: Mascot score 57, label: 5' biotin (BtnTg), folded or branched DNA.
[11] abbreviates: not found on control, label: 5' biotin, single-stranded DNA.
Setting [12] is: also found, target score at least double, label: 5' biotin, single-stranded DNA.

Where cells or extracts were used, other partners may take part. For some of these results: Negatives hold for the conditions tested. At least one verdict rests on a figure or table, not on a statement of the authors. The exact form of at least one protein or probe is not confirmed. For some of these results: Where a protein sequence is shown, tags need not be part of it. For some of these results: A weaker result is weaker than the reference pair of the same experiment.

On to “AAAAACCCCAGTCCCGCCCAGGCCACGCCTCCCAAAAA [C-ss-biot]”, for which the binding result in data set [1] (similar Mascot score as on Mdm2-G4, label: 5' biotin, single-stranded DNA) was “binds”.

Turning to “TGGGGGCTCGGGGCGCGGGGCGCGGGGCATGGGGC [Mdm2-G4-biot]”, the binding result in [2] (Mascot score 22, label: 5' biotin (BtnTg), folded or branched DNA) was “binds”; in data set [3] (Mascot score 89, label: 5' biotin (BtnTg), folded or branched DNA), “binds”; in [4] (Mascot score 24, label: 5' biotin (BtnTg), folded or branched DNA), “binds”; in data set [5] (Mascot score 29, label: 5' biotin (BtnTg), folded or branched DNA), “binds”; in data set [1] (Mascot score 125, label: 5' biotin (BtnTg), folded or branched DNA) it was “binds”; in [6] (setting [10]), “binds”. For the same sequence, the binding result was “binds” in data set [7] (setting [10]); “binds” in data set [8] (Mascot score 28, label: 5' biotin (BtnTg), folded or branched DNA); “binds” in data set [9] (Mascot score 123, label: 5' biotin (BtnTg), folded or branched DNA).

Take “TTTTTGGAGTCGTGTCGCGTGTCGAGCGTGTGTAGTGGTTTTT [G-ss-biot]”: the binding result in [2] (setting [11]) is “no binding”; in data set [3] (setting [12]), “binds more weakly”; in data set [4] (setting [12]), “binds more weakly”; in data set [5] (setting [11]), “no binding”; in data set [1] (not listed as found, label: 5' biotin, single-stranded DNA), “no binding”; in data set [6] (setting [12]), “binds more weakly”. The binding result in data set [7] (setting [11]), in data set [8] (setting [11]) and in data set [9] (setting [11]) was “no binding” throughout.
